# Laboratory results: PubChem BioAssay AID1439 (NMMLSC, 2008)
# Sequences of proteins named here, by UniProt entry; tags and fusion partners are left off.
# UniProt P09471, whole entry, looked up: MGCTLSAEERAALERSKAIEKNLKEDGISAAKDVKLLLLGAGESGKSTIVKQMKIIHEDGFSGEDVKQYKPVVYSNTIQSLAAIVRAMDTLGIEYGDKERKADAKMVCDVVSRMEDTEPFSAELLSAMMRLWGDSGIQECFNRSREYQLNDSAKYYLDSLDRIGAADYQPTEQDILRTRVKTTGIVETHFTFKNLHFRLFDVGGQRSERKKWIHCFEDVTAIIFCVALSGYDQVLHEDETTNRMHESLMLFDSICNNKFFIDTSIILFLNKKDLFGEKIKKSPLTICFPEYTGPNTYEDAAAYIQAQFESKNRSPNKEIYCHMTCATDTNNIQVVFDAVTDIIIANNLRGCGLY
# About 770 (0.35%) of roughly 220,000 compounds were called active. Inconclusive results, whose numbers are uncertain, are shown with a selection of clear calls. Rule as the data show it: active = binding response below about 49% or above about 150%; inconclusive = no clear call, values can overlap the other calls; inactive = in between.
# Biological target: Guanine nucleotide-binding protein G(o) subunit alpha (Homo sapiens) (UniProt P09471)
# Test: RGS7-Galphao binding modulators, primary screen, biochemical, multiplexed bead flow cytometry (AID 1439);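 also: fluorescent Galphao held in activated GDP-AlF4 state binding bead-coupled RGS7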
# Details: at 10 µM, actives lie on both sides
row,Compound,binding response (% of control)
1,COc1ccc2[nH]c(O)c(N=NC(=O)Cc3cccs3)c2c1,inconclusive: 87.6%
2,O=C(O)CNC(=S)N(Cc1ccccc1)Cc1cccs1,inconclusive: 84.7%
3,O=C(CN1CCCC1)OCCCC1CCCCC1,inconclusive: -40.9%
4,C/C=C(\C)C(=O)N1CC2(CC(c3cccc(NC(=O)CC(c4ccccc4)c4ccccc4)c3)=NO2)C[C@H]1C(N)=O (stereo partly drawn),inconclusive: 106%
5,COc1cccc(-c2nc(N3CCCC3)c3ccccc3n2)c1O,inconclusive: 111%
6,C/C(N)=C(/C#N)C(=O)COC(=O)CNS(=O)(=O)c1ccc(C)cc1,inconclusive: 86.4%
7,CNC(=O)NC(=O)COc1c(F)c(F)cc(F)c1F,inconclusive: 101%
8,COCc1c(C#N)c(NCc2cc(OC)c(OC)c(OC)c2)nc(C)c1[N+](=O)[O-],inconclusive: 74.7%
9,COc1ccc(Nc2nc(-c3ccc(OC)cc3)c(CCC(=O)O)s2)cc1,inconclusive: 161%
10,Cc1sc(-c2ccccn2)nc1OC(=O)c1ccc(F)cc1F,inconclusive: 109%
11,O=C(O)Cc1ccc(NC(=S)Nc2ccc(Br)cc2Cl)cc1,inconclusive: 128%
12,CCOCCCn1c(=NC(=O)c2cccs2)c(C#N)cc2c(=O)n3ccccc3nc21,inconclusive: 92.1%
13,CCOC(=O)c1ccc(N2CCOCC2)c(NC(=O)COCC(=O)O)c1,inconclusive: 85.3%
14,CSc1nc2ccc(NC(=O)c3c(-c4ccccc4)noc3C)cc2s1,inconclusive: 106%
15,C=CCNc1nc(N)c(C(=C(C#N)C#N)c2ccc(Br)cc2)s1,inactive: 97.8%
16,O=C(NCCc1ccccc1)c1ccc(NCC2CCCO2)c([N+](=O)[O-])c1 (stereo not drawn),inactive: 99.2%
17,Cn1c(SCC(=O)O)nnc1-c1ccc2ncccc2c1,inconclusive: 87.9%
18,CC1CCN(C(=O)c2ccc3c(Cl)c4c(nc3c2)CCCC4)CC1,inconclusive: 91.2%
19,COCCNC(=S)N/N=C(\C)c1ccc(Cl)c(Cl)c1,inconclusive: 90.7%
20,Cc1ccn2cc(CCNC(=O)COc3ccccc3)nc2c1,inconclusive: 127%

# 16 entries from above, with tabs.
row	Compound	binding response (% of control)
1	COc1ccc2[nH]c(O)c(N=NC(=O)Cc3cccs3)c2c1	inconclusive: 87.6%
2	O=C(O)CNC(=S)N(Cc1ccccc1)Cc1cccs1	inconclusive: 84.7%
3	O=C(CN1CCCC1)OCCCC1CCCCC1	inconclusive: -40.9%
4	C/C=C(\C)C(=O)N1CC2(CC(c3cccc(NC(=O)CC(c4ccccc4)c4ccccc4)c3)=NO2)C[C@H]1C(N)=O (stereo partly drawn)	inconclusive: 106%
5	COc1cccc(-c2nc(N3CCCC3)c3ccccc3n2)c1O	inconclusive: 111%
6	C/C(N)=C(/C#N)C(=O)COC(=O)CNS(=O)(=O)c1ccc(C)cc1	inconclusive: 86.4%
7	CNC(=O)NC(=O)COc1c(F)c(F)cc(F)c1F	inconclusive: 101%
8	COCc1c(C#N)c(NCc2cc(OC)c(OC)c(OC)c2)nc(C)c1[N+](=O)[O-]	inconclusive: 74.7%
10	Cc1sc(-c2ccccn2)nc1OC(=O)c1ccc(F)cc1F	inconclusive: 109%
11	O=C(O)Cc1ccc(NC(=S)Nc2ccc(Br)cc2Cl)cc1	inconclusive: 128%
13	CCOC(=O)c1ccc(N2CCOCC2)c(NC(=O)COCC(=O)O)c1	inconclusive: 85.3%
14	CSc1nc2ccc(NC(=O)c3c(-c4ccccc4)noc3C)cc2s1	inconclusive: 106%
15	C=CCNc1nc(N)c(C(=C(C#N)C#N)c2ccc(Br)cc2)s1	inactive: 97.8%
17	Cn1c(SCC(=O)O)nnc1-c1ccc2ncccc2c1	inconclusive: 87.9%
18	CC1CCN(C(=O)c2ccc3c(Cl)c4c(nc3c2)CCCC4)CC1	inconclusive: 91.2%
19	COCCNC(=S)N/N=C(\C)c1ccc(Cl)c(Cl)c1	inconclusive: 90.7%

# Following part:

row,Compound,binding response (% of control)
1,CCc1nnc(NC(=O)CCN2C(=O)CCC2=O)s1,inactive: 93%
2,Cc1ccc(-c2nnc(N3CCN(C(=O)c4cccs4)CC3)c3ccccc23)cc1,inconclusive: 128%
3,Cn1c(N)c(C(=O)Nc2c(Cl)cccc2Cl)sc1=S,inconclusive: 129%
4,CCCCNc1nc2c(-c3ccccc3)nnn2c2ccccc12,inconclusive: 187%
5,Nc1cccc(S(=O)(=O)Nc2ccc(Br)cc2)c1,inconclusive: 105%
6,Cc1ccc(C(=O)NCCc2nc3ccccc3[nH]2)cc1[N+](=O)[O-],inactive: 100%
7,Cc1nn(C)c(Cl)c1C(=O)NCC(=O)Nc1ccc(C(C)C)cc1,inconclusive: 103%
8,O=C(c1ccc(Cl)cc1)N1CCCC(C(=O)N2CCc3ccccc3C2)C1 (stereo not drawn),inconclusive: 120%
9,Cc1ccc(NC(=O)CS(=O)CC(=O)NC(C)CCc2ccco2)cc1Cl (stereo not drawn),inactive: 116%
10,COc1cc2cc(Oc3ccc4ccc(=O)oc4c3)c(=O)oc2cc1O,inactive: 97.7%
11,CC(C)C(=O)NC(c1ccc(N(C)C)cc1)c1c(O)ccc2ccccc12 (stereo not drawn),inconclusive: 72%
12,Cc1cc(N2CCN(S(=O)(=O)c3ccc(Cl)c(Cl)c3)CC2)c2ccccc2n1,inconclusive: 79.8%
13,CC(=O)Nc1ccc(OC(F)(F)Cl)cc1,inconclusive: 93%
14,COc1ccc(CC(=O)NNC(=O)c2c(-c3ccccc3Cl)noc2C)cc1OC,inconclusive: 125%
15,COc1cc(Cl)ccc1NC(=S)N(CCN(C)C)C(C)c1ccncc1 (stereo not drawn),inconclusive: 96.3%
16,O=c1[nH]c(O)c(C=Nc2ccc(Cl)cc2Cl)c(=O)[nH]1,inconclusive: 119%
17,O=C(COC(=O)CNC(=O)c1cccc([N+](=O)[O-])c1)NCc1ccco1,inconclusive: 111%
18,CC1C(Br)C(=O)NC(=O)N1Cc1ccccc1 (stereo not drawn),inconclusive: 90%
19,O=C(NNC(=O)c1ccc[nH]1)Nc1cc(Cl)cc(Cl)c1,inconclusive: 92.9%
20,CCN(CCn1cccn1)Cc1nc(-c2ccc(OC)cc2)no1,inconclusive: 106%

row,Compound,binding response (% of control)
1,CCN(CC)CC#CC(OC)(c1ccccc1)c1ccccc1,inactive: 104%
2,O=C1Cc2ccccc2C(c2ccc(Cl)cc2)N1 (stereo not drawn),inconclusive: 17.8%
3,COc1ccccc1NC(=O)CCN1C(=O)c2ccccc2S1(=O)=O,inconclusive: 84.1%
4,O=C(c1ccc(Cl)cc1)c1oc2ccccc2c1CS(=O)(=O)c1ccccc1,inactive: 104%
5,C/C(=N\Nc1nc2ccccc2[nH]1)c1ccc2c(c1)OCO2,inconclusive: 102%
6,Clc1ccc(C2[C@H]3CN(CC4CCCCC4)[C@H](c4ccccc4)C34CC2(c2cccnc2)C4)cn1 (stereo partly drawn),inconclusive: 88.1%
7,CCOC(=O)/C(=N/Nc1ccccc1)Sc1nnc(CCc2ccccc2)n1-c1ccccc1,inactive: 102%
8,C=COC(=O)c1sc2nc(C)cc(C)c2c1N,inconclusive: -355%
9,Cc1nc(C(=O)NCc2ccccc2)sc1C1(C)CC(c2cccnc2)=NO1 (stereo not drawn),inconclusive: 107%
10,COc1cc(OC)nc(Oc2cc(/C=N/O)ccc2OC)n1,inconclusive: 101%
11,O=c1c(-c2c(O)cc(O)c3c(=O)cc(-c4ccc(O)cc4)oc23)c(-c2ccc(O)cc2)oc2cc(O)cc(O)c12,inconclusive: 98%
12,CCC(C)[C@H](NC(=O)Nc1ccc2c(c1)OCCO2)C(=O)OC (stereo partly drawn),inconclusive: 117%
13,CCOC(=O)c1ccc(NC2=CC(=O)CC(c3ccco3)C2)cc1 (stereo not drawn),inconclusive: 100%
14,CCOC(=O)CN(C(=O)COc1nc(-c2ccccc2)cc(C)c1C#N)c1ccc(F)cc1,inconclusive: 18.9%
15,CCCCC(=O)NNC(=S)NCc1ccccc1,inconclusive: 115%
16,Cn1ccnc1C(O)(c1ccccc1)c1nccn1C,inconclusive: 42.5%
17,Cc1ccccc1NC(=O)c1ccc(NC(=O)C2CC(=O)OC23CCCCC3)cc1 (stereo not drawn),inconclusive: 128%
18,O=C(C(=O)N1CCc2ccccc2C1)c1c[nH]c2ccccc12,inconclusive: 88.7%
